Measurements as given in publication PMC3789215.
These are yes or no findings as the source states them, for the method shown. Binding seen in cells or lysates may run through a third protein. For some assays here: Binding can be weak; no strength is given.

Protein sequences, listed by entry. Tags and fused reporters are not part of them. Lines headed by an entry give the natural chain unless they say otherwise; changes in a name come on top.
UniProt Q8C6B2: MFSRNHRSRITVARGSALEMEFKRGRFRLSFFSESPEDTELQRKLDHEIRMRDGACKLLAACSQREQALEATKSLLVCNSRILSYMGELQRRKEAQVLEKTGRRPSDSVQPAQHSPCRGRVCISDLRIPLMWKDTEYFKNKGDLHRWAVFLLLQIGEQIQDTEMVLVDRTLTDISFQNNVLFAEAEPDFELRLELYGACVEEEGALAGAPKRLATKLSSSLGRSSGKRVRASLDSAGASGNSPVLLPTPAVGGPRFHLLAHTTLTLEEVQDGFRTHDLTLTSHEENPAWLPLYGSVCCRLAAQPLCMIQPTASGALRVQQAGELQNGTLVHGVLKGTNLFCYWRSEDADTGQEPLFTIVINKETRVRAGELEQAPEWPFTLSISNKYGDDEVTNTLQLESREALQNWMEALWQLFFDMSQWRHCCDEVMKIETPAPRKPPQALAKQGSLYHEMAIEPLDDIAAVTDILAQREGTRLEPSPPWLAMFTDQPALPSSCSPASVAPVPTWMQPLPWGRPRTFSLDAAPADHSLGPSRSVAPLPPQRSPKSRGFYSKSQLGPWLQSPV
UniProt Q9QUI0: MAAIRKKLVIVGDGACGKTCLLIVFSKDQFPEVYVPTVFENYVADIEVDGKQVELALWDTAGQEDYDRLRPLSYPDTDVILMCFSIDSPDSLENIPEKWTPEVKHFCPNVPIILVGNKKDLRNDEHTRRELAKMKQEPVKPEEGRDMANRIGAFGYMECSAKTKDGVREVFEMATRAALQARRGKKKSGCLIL

How the values were obtained:
[1] = target: Rhotekin RBD (Rho-binding domain) agarose beads (UniProt Q8C6B2); experiment: pull-down; as a1, with GDP-loaded samples (negative control); only the target purified
[2] = target: Rhotekin RBD (Rho-binding domain) agarose beads (UniProt Q8C6B2); experiment: pull-down; Rhotekin RBD agarose beads (40 ul slurry) incubated with mouse heart tissue lysate (naive, sham, 1 month post-SCI; GTPgammaS-loaded samples as positive control), 4 C, 1 h; washed three times in assay lysis buffer; immunoblot with anti-RhoA; only the target purified

## RhoA (from UniProt Q9QUI0 1-193)
[1]
  binding: no binding (only GDP-loaded samples)
[2]
  binding: binds
